Assay results reported in the supplement of paper PMC8728848.
This is one part of the list.

Assays:
Assay in all cases: glycan array binding signal (z-score within array); higher = stronger binding
Conditions in all cases: glycan notation: IUPAC condensed, linker removed
[1] = target: Gal(a1-3)Gal(b1-4)GlcNAc(b1-2)Man
Method in brief: (§1)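 The Consortium for Functional Glycomics database supplied 3228 glycan arrays, of which those lacking an available protein sequence were dropped. The binding signal, a within-array Z-score, was averaged across arrays of the same protein sequence and across linkers. Negative scores can be read as non-binding.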

[2] = target: Gal(a1-3)Gal(b1-4)GlcNAc(b1-2)Man(a1-3)[Gal(a1-3)Gal(b1-4)GlcNAc(b1-2)Man(a1-6)]Man(b1-4)GlcNAc(b1-4)GlcNAc
Method in brief: as §1

[3] = target: Gal(a1-3)Gal(b1-4)GlcNAc(b1-3)GalNAc
Method in brief: as §1

[4] = target: Gal(a1-3)Gal(b1-4)GlcNAc(b1-6)GalNAc
Method in brief: as §1

[5] = target: Gal(a1-3)Gal(b1-4)[Fuc(a1-3)]GlcNAc
Method in brief: as §1

[6] = target: Gal(a1-3)Gal(b1-4)[Fuc(a1-3)]GlcNAc(b1-2)Man(a1-3)[Gal(a1-3)Gal(b1-4)[Fuc(a1-3)]GlcNAc(b1-2)Man(a1-6)]Man(b1-4)GlcNAc(b1-4)GlcNAc
Method in brief: as §1

Gal(a1-3)GalNAc = target: Gal(a1-3)GalNAc
Method in brief: as §1

[7] = target: Gal(a1-3)[Gal(a1-4)]Gal(b1-4)GlcNAc
Method in brief: as §1

[8] = target: Gal(a1-4)Gal(b1-3)GlcNAc(b1-2)Man(a1-3)[Gal(a1-4)Gal(b1-3)GlcNAc(b1-2)Man(a1-6)]Man(b1-4)GlcNAc(b1-4)GlcNAc
Method in brief: as §1

Gal(a1-4)Gal(b1-4)Glc = target: Gal(a1-4)Gal(b1-4)Glc
Method in brief: as §1

Gal(a1-4)Gal(b1-4)GlcNAc = target: Gal(a1-4)Gal(b1-4)GlcNAc
Method in brief: as §1

[9] = target: Gal(a1-4)Gal(b1-4)GlcNAc(b1-2)Man(a1-3)[Gal(a1-4)Gal(b1-4)GlcNAc(b1-2)Man(a1-6)]Man(b1-4)GlcNAc(b1-4)GlcNAc
Method in brief: as §1

[10] = target: Gal(a1-4)Gal(b1-4)GlcNAc(b1-3)Gal(b1-4)Glc
Method in brief: as §1

Gal(a1-4)GlcNAc = target: Gal(a1-4)GlcNAc
Method in brief: as §1

Gal(a1-6)Glc = target: Gal(a1-6)Glc
Method in brief: as §1

Gal(b1-2)Gal = target: Gal(b1-2)Gal
Method in brief: as §1

Gal(b1-3)Gal = target: Gal(b1-3)Gal
Method in brief: as §1

Gal(b1-3)Gal(b1-4)GlcNAc = target: Gal(b1-3)Gal(b1-4)GlcNAc
Method in brief: as §1

Gal(b1-3)GalNAc = target: Gal(b1-3)GalNAc
Method in brief: as §1

[11] = target: Gal(b1-3)GalNAc(a1-3)[Fuc(a1-2)]Gal(b1-4)Glc
Method in brief: as §1

[12] = target: Gal(b1-3)GalNAc(a1-3)[Fuc(a1-2)]Gal(b1-4)GlcNAc
Method in brief: as §1

Gal(b1-3)GalNAc(b1-3)Gal = target: Gal(b1-3)GalNAc(b1-3)Gal
Method in brief: as §1

[13] = target: Gal(b1-3)GalNAc(b1-3)Gal(a1-4)Gal(b1-4)Glc
Method in brief: as §1

[14] = target: Gal(b1-3)GalNAc(b1-4)Gal(b1-4)Glc
Method in brief: as §1

[15] = target: Gal(b1-3)GalNAc(b1-4)[Neu5Ac(a2-3)]Gal(b1-4)Glc
Method in brief: as §1

Gal(b1-3)GlcNAc = target: Gal(b1-3)GlcNAc
Method in brief: as §1

[16] = target: Gal(b1-3)GlcNAc(a1-3)Gal(b1-4)GlcNAc
Method in brief: as §1

[17] = target: Gal(b1-3)GlcNAc(a1-6)Gal(b1-4)GlcNAc
Method in brief: as §1

Gal(b1-3)GlcNAc(b1-2)Man = target: Gal(b1-3)GlcNAc(b1-2)Man
Method in brief: as §1

[18] = target: Gal(b1-3)GlcNAc(b1-2)Man(a1-3)[Gal(b1-3)GlcNAc(b1-2)Man(a1-6)]Man(b1-4)GlcNAc(b1-4)GlcNAc
Method in brief: as §1

[19] = target: Gal(b1-3)GlcNAc(b1-2)Man(a1-3)[Gal(b1-3)GlcNAc(b1-2)Man(a1-6)]Man(b1-4)GlcNAc(b1-4)[Fuc(a1-6)]GlcNAc
Method in brief: as §1

[20] = target: Gal(b1-3)GlcNAc(b1-2)Man(a1-3)[GlcNAc(b1-4)][Gal(b1-3)GlcNAc(b1-2)Man(a1-6)]Man(b1-4)GlcNAc(b1-4)GlcNAc
Method in brief: as §1

[21] = target: Gal(b1-3)GlcNAc(b1-2)[Gal(b1-3)GlcNAc(b1-6)]Man(a1-6)[Gal(b1-3)GlcNAc(b1-2)Man(a1-3)]Man(b1-4)GlcNAc(b1-4)GlcNAc
Method in brief: as §1

[22] = target: Gal(b1-3)GlcNAc(b1-3)Gal(b1-3)GlcNAc
Method in brief: as §1

[23] = target: Gal(b1-3)GlcNAc(b1-3)Gal(b1-4)Glc
Method in brief: as §1

[24] = target: Gal(b1-3)GlcNAc(b1-3)Gal(b1-4)GlcNAc
Method in brief: as §1

[25] = target: Gal(b1-3)GlcNAc(b1-3)Gal(b1-4)GlcNAc(b1-2)Man(a1-3)[Gal(b1-3)GlcNAc(b1-3)Gal(b1-4)GlcNAc(b1-2)Man(a1-6)]Man(b1-4)GlcNAc(b1-4)GlcNAc
Method in brief: as §1

[26] = target: Gal(b1-3)GlcNAc(b1-3)Gal(b1-4)GlcNAc(b1-2)[Gal(b1-3)GlcNAc(b1-3)Gal(b1-4)GlcNAc(b1-6)]Man(a1-6)[Gal(b1-3)GlcNAc(b1-3)Gal(b1-4)GlcNAc(b1-2)Man(a1-3)]Man(b1-4)GlcNAc(b1-4)[Fuc(a1-6)]GlcNAc
Method in brief: as §1

[27] = target: Gal(b1-3)GlcNAc(b1-3)Gal(b1-4)GlcNAc(b1-3)Gal(b1-4)GlcNAc(b1-2)[Gal(b1-3)GlcNAc(b1-3)Gal(b1-4)GlcNAc(b1-3)Gal(b1-4)GlcNAc(b1-6)]Man(a1-6)[Gal(b1-3)GlcNAc(b1-3)Gal(b1-4)GlcNAc(b1-3)Gal(b1-4)GlcNAc(b1-2)Man(a1-3)]Man(b1-4)GlcNAc(b1-4)[Fuc(a1-6)]GlcNAc
Method in brief: as §1

[28] = target: Gal(b1-3)GlcNAc(b1-3)Gal(b1-4)GlcNAc(b1-6)[Gal(b1-3)GlcNAc(b1-3)]Gal(b1-4)Glc
Method in brief: as §1

[29] = target: Gal(b1-3)GlcNAc(b1-3)Gal(b1-4)[Fuc(a1-3)]GlcNAc
Method in brief: as §1

[30] = target: Gal(b1-3)GlcNAc(b1-3)Gal(b1-4)[Fuc(a1-3)]GlcNAc(b1-6)[Gal(b1-3)GlcNAc(b1-3)]Gal(b1-4)Glc
Method in brief: as §1

[31] = target: Gal(b1-3)GlcNAc(b1-3)GalNAc
Method in brief: as §1

[32] = target: Gal(b1-3)GlcNAc(b1-6)Gal(b1-4)GlcNAc
Method in brief: as §1

[33] = target: Gal(b1-3)GlcNAc(b1-6)GalNAc
Method in brief: as §1

B1: PX14379D-pdi-530-26-530 (Parabacteroides distasonis) (protein)
chain: DETVYDKLPADDFGQSTAELNALIGNSHNTMKKFWTEYMHLSECSGSMAVTPTRRGGDWYDGGQYREIYMHTWTSQTSRVKSAWKAATEAIGTCNEAIRKLQNSEILTEEEKAQDVADLRGVRAFWIYVMMDYWGNIPLLTEFHPTDKVFPGNSSRQEVFDWLIQEVEEIKDICPPATTENYGSFTQGAAYSLLAKLYLNAEAWGVTFSGNAYQKVIDNCDKVMAMGYILEPNWKDNFSVTNENSKEAILAATFSSSDTGNDGNVKNELHNNTLHYKDYLSLGITASGTWNGICAQPEYVRLFDEEDARLDGTFLTGLMIDKSTGKPIMTDHNNELNHTIDVNMIPGMEYDGTNWSAVEQHDGARCFKWEFASDLTSSMGNDFHIFRLADIYLMKAEALLRGGGSVSEATALVNTIRERGYGNSDHNYATVTLKEVQLERRLELAWEVYSRQDDIRFGCFTTGMWPQSNCERKADDYLKLLPVSQDAWQVNPNLKQNPGYAAFSK
B1 was tested. Which “glycan array binding signal (z-score)” value [1] did it give?
Its value is -0.227.

And the “glycan array binding signal (z-score)” value [2]?
Its value is 1.1.

What about the “glycan array binding signal (z-score)” value [3] of the same binder?
The value was -0.333.

And the “glycan array binding signal (z-score)” value [4]?
The value was -0.109.

And the “glycan array binding signal (z-score)” value [5]?
Its value is -1.3.

And the “glycan array binding signal (z-score)” value [6]?
The value was 0.036.

What about the “glycan array binding signal (z-score)” value (Gal(a1-3)GalNAc) of the same binder?
The value was -0.171.

What about the “glycan array binding signal (z-score)” value [7] of the same binder?
Its value is 4.67.

What about the “glycan array binding signal (z-score)” value [8] of the same binder?
Its value is 1.05.

What about the “glycan array binding signal (z-score)” value (Gal(a1-4)Gal(b1-4)Glc) of the same binder?
Its value is 1.1.

And the “glycan array binding signal (z-score)” value (Gal(a1-4)Gal(b1-4)GlcNAc)?
The value was 0.793.

What about the “glycan array binding signal (z-score)” value [9] of the same binder?
The value was 0.97.

What about the “glycan array binding signal (z-score)” value [10] of the same binder?
The value was -0.544.

What about the “glycan array binding signal (z-score)” value (Gal(a1-4)GlcNAc) of the same binder?
The value was 0.348.

What about the “glycan array binding signal (z-score)” value (Gal(a1-6)Glc) of the same binder?
Its value is 0.995.

What about the “glycan array binding signal (z-score)” value (Gal(b1-2)Gal) of the same binder?
The value was -1.23.

What about the “glycan array binding signal (z-score)” value (Gal(b1-3)Gal) of the same binder?
The value was -0.435.

And the “glycan array binding signal (z-score)” value (Gal(b1-3)Gal(b1-4)GlcNAc)?
Its value is 0.29.

What about the “glycan array binding signal (z-score)” value (Gal(b1-3)GalNAc) of the same binder?
The value was 0.214.

And the “glycan array binding signal (z-score)” value [11]?
The value was -0.68.

And the “glycan array binding signal (z-score)” value [12]?
The value was -0.876.

What about the “glycan array binding signal (z-score)” value (Gal(b1-3)GalNAc(b1-3)Gal) of the same binder?
Its value is -1.03.

What about the “glycan array binding signal (z-score)” value [13] of the same binder?
Its value is -1.08.

And the “glycan array binding signal (z-score)” value [14]?
Its value is 0.294.

What about the “glycan array binding signal (z-score)” value [15] of the same binder?
The value was -0.525.

And the “glycan array binding signal (z-score)” value (Gal(b1-3)GlcNAc)?
Its value is -0.114.

What about the “glycan array binding signal (z-score)” value [16] of the same binder?
The value was -0.704.

What about the “glycan array binding signal (z-score)” value [17] of the same binder?
Its value is 0.266.

What about the “glycan array binding signal (z-score)” value (Gal(b1-3)GlcNAc(b1-2)Man) of the same binder?
The value was -0.427.

And the “glycan array binding signal (z-score)” value [18]?
The value was 1.16.

And the “glycan array binding signal (z-score)” value [19]?
Its value is 0.577.

What about the “glycan array binding signal (z-score)” value [20] of the same binder?
The value was 0.644.

What about the “glycan array binding signal (z-score)” value [21] of the same binder?
Its value is -0.706.

And the “glycan array binding signal (z-score)” value [22]?
The value was -0.766.

What about the “glycan array binding signal (z-score)” value [23] of the same binder?
The value was -0.552.

What about the “glycan array binding signal (z-score)” value [24] of the same binder?
Its value is -0.777.

And the “glycan array binding signal (z-score)” value [25]?
The value was 0.63.

What about the “glycan array binding signal (z-score)” value [26] of the same binder?
The value was 1.7.

What about the “glycan array binding signal (z-score)” value [27] of the same binder?
The value was 0.912.

What about the “glycan array binding signal (z-score)” value [28] of the same binder?
Its value is 0.395.

And the “glycan array binding signal (z-score)” value [29]?
Its value is -0.369.

What about the “glycan array binding signal (z-score)” value [30] of the same binder?
The value was -0.784.

What about the “glycan array binding signal (z-score)” value [31] of the same binder?
The value was -0.25.

And the “glycan array binding signal (z-score)” value [32]?
The value was -1.22.

And the “glycan array binding signal (z-score)” value [33]?
The value was -0.974.
